The subject of experiment [1] is Candida albicans CCM 8320 (ATCC 24433). The experiment can be described thus: Antifungal microdilution broth, C. albicans. The format is cell-based. Particulars: 48 h, read-out: MIC against Candida albicans. (In general: Broth dilution looks for growth in wells or tubes with falling amounts of substance.)
Experiment [2] concerns Aspergillus fumigatus ATCC 204305. The experiment can be described thus: Antifungal microdilution broth, A. fumigatus. In kind it is cell-based. Particulars: ATCC204305, 48 h, read-out: MIC against Aspergillus fumigatus.

By MIC is commonly meant the least concentration at which growth counts as inhibited.

Converted amounts (≈) assume the structure as drawn.

`C[C@@H]1[C@H](O)[C@@H](C)/C=C/C=C/C=C/C=C/C=C/C=C/C=C/[C@H](O[C@@H]2O[C@H](C)[C@@H](O)[C@H](N)[C@@H]2O)C[C@@H]2O[C@](O)(C[C@@H](O)C[C@@H](O)[C@H](O)CC[C@@H](O)C[C@@H](O)CC(=O)O[C@H]1C)C[C@H](O)[C@H]2C(=O)O` [amphotericin B]: the minimum inhibitory concentration (MIC) in experiment [1] is 0.5 µg/mL (≈ 0.541 µM); in experiment [2], 1 µg/mL (≈ 1.08 µM).

The values above are taken from PMC6982817, “Substituted N-(Pyrazin-2-yl)benzenesulfonamides; Synthesis, Anti-Infective Evaluation, Cytotoxicity, and In Silico Studies” (Molecules, 2019).
